Source: PubChem BioAssay AID743121 (NCATS, 2013)
Shown is an unselected part of about 26,000 reagents tested. Over the whole deposit, 167 (0.63%) were called active. 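Calls are per gene from RSA p-values that are not deposited; an individual active-marked siRNA can sensitise only weakly.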 Reagents against one gene are numbered here. Not all columns of the deposit are shown.

Purpose: 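Knock-downs that sensitise breast cancer cells to camptothecin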 (primary screen)
Cell system: MDA-MB-231 cells, a human breast cancer line
Knock-down reagent: single siRNA against human genes, 20 nM siRNA (0.8 pmol per well)
Duration: 120 h (drug added 48 h after transfection, read 72 h later)
Treatment: camptothecin 20 nM (about EC30) for 72 h; vehicle 0.1% DMSO in parallel plates
Read-out: 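CellTiter-Glo ATP signal, scaled to control siRNA as percent viability; sensitisation given as log2 of untreated divided by camptothecin-treated viability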
Scale: log2 vehicle/camptothecin viability: higher = stronger sensitisation to camptothecin
Call rule: 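Each gene scored by redundant siRNA activity (RSA) over its individual siRNA ratios; a gene is called active at p < 0.001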

KMO (kynurenine 3-monooxygenase) #1
- log2 vehicle/camptothecin viability: -0.0479
- outcome: inactive

KMO (kynurenine 3-monooxygenase) #2
- log2 vehicle/camptothecin viability: 0.0608
- outcome: inactive

KMO (kynurenine 3-monooxygenase) #3
- log2 vehicle/camptothecin viability: -0.641
- outcome: inactive

KMO (kynurenine 3-monooxygenase) #4
- log2 vehicle/camptothecin viability: -0.127
- outcome: inactive

DLX3 (distal-less homeobox 3) #1
- log2 vehicle/camptothecin viability: -0.519
- outcome: inactive

DLX3 (distal-less homeobox 3) #2
- log2 vehicle/camptothecin viability: -0.755
- outcome: inactive

DLX3 (distal-less homeobox 3) #3
- log2 vehicle/camptothecin viability: 0.00694
- outcome: inactive

PTPN23 (protein tyrosine phosphatase non-receptor type 23) #1
- log2 vehicle/camptothecin viability: 0.646
- outcome: inactive

PTPN23 (protein tyrosine phosphatase non-receptor type 23) #2
- log2 vehicle/camptothecin viability: -0.582
- outcome: inactive

PTPN23 (protein tyrosine phosphatase non-receptor type 23) #3
- log2 vehicle/camptothecin viability: -0.277
- outcome: inactive

PTPN23 (protein tyrosine phosphatase non-receptor type 23) #4
- log2 vehicle/camptothecin viability: 0.7
- outcome: inactive

RBL2 (RB transcriptional corepressor like 2) #1
- log2 vehicle/camptothecin viability: 0.0931
- outcome: inactive

RBL2 (RB transcriptional corepressor like 2) #2
- log2 vehicle/camptothecin viability: 0.0138
- outcome: inactive

RBL2 (RB transcriptional corepressor like 2) #3
- log2 vehicle/camptothecin viability: -0.0985
- outcome: inactive

RBL2 (RB transcriptional corepressor like 2) #4
- log2 vehicle/camptothecin viability: 0.317
- outcome: inactive

DHRS1 (dehydrogenase/reductase 1) #1
- log2 vehicle/camptothecin viability: 0.194
- outcome: inactive

DHRS1 (dehydrogenase/reductase 1) #2
- log2 vehicle/camptothecin viability: 0.0861
- outcome: inactive

DHRS1 (dehydrogenase/reductase 1) #3
- log2 vehicle/camptothecin viability: -0.219
- outcome: inactive

VAV3 (vav guanine nucleotide exchange factor 3) #1
- log2 vehicle/camptothecin viability: -0.0852
- outcome: inactive

VAV3 (vav guanine nucleotide exchange factor 3) #2
- log2 vehicle/camptothecin viability: -0.125
- outcome: inactive

VAV3 (vav guanine nucleotide exchange factor 3) #3
- log2 vehicle/camptothecin viability: -0.303
- outcome: inactive

VAV3 (vav guanine nucleotide exchange factor 3) #4
- log2 vehicle/camptothecin viability: 0.295
- outcome: inactive

VAV3 (vav guanine nucleotide exchange factor 3) #5
- log2 vehicle/camptothecin viability: 0.186
- outcome: inactive

VAV3 (vav guanine nucleotide exchange factor 3) #6
- log2 vehicle/camptothecin viability: -0.133
- outcome: inactive

VAV3 (vav guanine nucleotide exchange factor 3) #7
- log2 vehicle/camptothecin viability: 0.0637
- outcome: inactive

VAV3 (vav guanine nucleotide exchange factor 3) #8
- log2 vehicle/camptothecin viability: -0.42
- outcome: inactive

HSD17B1 (hydroxysteroid 17-beta dehydrogenase 1) #1
- log2 vehicle/camptothecin viability: 0.00951
- outcome: inactive

HSD17B1 (hydroxysteroid 17-beta dehydrogenase 1) #2
- log2 vehicle/camptothecin viability: 0.176
- outcome: inactive

HSD17B1 (hydroxysteroid 17-beta dehydrogenase 1) #3
- log2 vehicle/camptothecin viability: -0.1
- outcome: inactive

HSD17B1 (hydroxysteroid 17-beta dehydrogenase 1) #4
- log2 vehicle/camptothecin viability: -0.367
- outcome: inactive

Next part, starting with the last 5 of the part before.
VAV3 (vav guanine nucleotide exchange factor 3) #8
- log2 vehicle/camptothecin viability: -0.42
- outcome: inactive

HSD17B1 (hydroxysteroid 17-beta dehydrogenase 1) #1
- log2 vehicle/camptothecin viability: 0.00951
- outcome: inactive

HSD17B1 (hydroxysteroid 17-beta dehydrogenase 1) #2
- log2 vehicle/camptothecin viability: 0.176
- outcome: inactive

HSD17B1 (hydroxysteroid 17-beta dehydrogenase 1) #3
- log2 vehicle/camptothecin viability: -0.1
- outcome: inactive

HSD17B1 (hydroxysteroid 17-beta dehydrogenase 1) #4
- log2 vehicle/camptothecin viability: -0.367
- outcome: inactive

SERPINH1 (serpin family H member 1) #1
- log2 vehicle/camptothecin viability: -0.251
- outcome: inactive

SERPINH1 (serpin family H member 1) #2
- log2 vehicle/camptothecin viability: -0.353
- outcome: inactive

SERPINH1 (serpin family H member 1) #3
- log2 vehicle/camptothecin viability: -0.291
- outcome: inactive

SERPINH1 (serpin family H member 1) #4
- log2 vehicle/camptothecin viability: 1.42
- outcome: inactive

CTSO (cathepsin O) #1
- log2 vehicle/camptothecin viability: -0.347
- outcome: inactive

CTSO (cathepsin O) #2
- log2 vehicle/camptothecin viability: -0.365
- outcome: inactive

CTSO (cathepsin O) #3
- log2 vehicle/camptothecin viability: 0.074
- outcome: inactive

DUSP22 (dual specificity phosphatase 22) #1
- log2 vehicle/camptothecin viability: 0.0122
- outcome: inactive

DUSP22 (dual specificity phosphatase 22) #2
- log2 vehicle/camptothecin viability: -0.264
- outcome: inactive

DUSP22 (dual specificity phosphatase 22) #3
- log2 vehicle/camptothecin viability: -0.024
- outcome: inactive

DUSP22 (dual specificity phosphatase 22) #4
- log2 vehicle/camptothecin viability: 0.0626
- outcome: inactive

ALX4 (ALX homeobox 4) #1
- log2 vehicle/camptothecin viability: -0.418
- outcome: inactive

ALX4 (ALX homeobox 4) #2
- log2 vehicle/camptothecin viability: 0.0864
- outcome: inactive

ALX4 (ALX homeobox 4) #3
- log2 vehicle/camptothecin viability: 1.06
- outcome: inactive

ALX4 (ALX homeobox 4) #4
- log2 vehicle/camptothecin viability: 0.799
- outcome: inactive
